Assay results taken from paper PMC5704379.
Results are given in words; binding and its absence hold for the method and conditions named. In cells and extracts the contact can be indirect. Some results given as binding are weak or reduced against the parent protein; the word gives no strength. For part of these data: Where a sequence is shown, tags or fusion partners need not be part of it.

T1: Sertad1 (human (endogenous in 293, K562, HL60, KG1a, U937)) (UniProt Q9UHV2)
T1 sequence: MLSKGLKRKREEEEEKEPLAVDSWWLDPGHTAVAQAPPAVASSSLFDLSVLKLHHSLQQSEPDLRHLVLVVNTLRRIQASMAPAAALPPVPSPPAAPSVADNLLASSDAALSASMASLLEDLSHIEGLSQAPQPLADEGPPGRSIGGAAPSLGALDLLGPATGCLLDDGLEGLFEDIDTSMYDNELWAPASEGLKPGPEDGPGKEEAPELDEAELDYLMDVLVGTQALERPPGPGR

T2: Sertad1 Serta domain with myc tag (UniProt Q9UHV2)
T2 sequence: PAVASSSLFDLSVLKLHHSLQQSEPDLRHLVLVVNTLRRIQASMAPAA

T3: full-length Sertad1 with myc tag (UniProt Q9UHV2)
T3 sequence: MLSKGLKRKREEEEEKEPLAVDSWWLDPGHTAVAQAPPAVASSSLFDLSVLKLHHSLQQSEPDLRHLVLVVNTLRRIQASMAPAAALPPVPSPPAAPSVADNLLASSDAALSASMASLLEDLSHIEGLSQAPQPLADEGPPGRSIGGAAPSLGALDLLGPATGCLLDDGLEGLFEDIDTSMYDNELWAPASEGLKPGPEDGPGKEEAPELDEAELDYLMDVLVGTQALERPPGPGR


What was measured:
[1] = target: T1, Sertad1 (human (endogenous in 293, K562, HL60, KG1a, U937)); experiment: co-IP; endogenous proteins; 293, K562, HL60, KG1a and U937 cells lysed in RIPA lysis buffer; IP with anti-Sertad1 (and anti-iASPP), Western blot with anti-iASPP; rabbit IgG as negative control
[2] = target: T2, Sertad1 Serta domain with myc tag; experiment: co-IP; 293 cells cotransfected with myc-tagged full-length Sertad1 or single domains and pcDNA3.1-iASPP; lysates precipitated with anti-myc, blotted with anti-iASPP
[3] = target: T3, full-length Sertad1 with myc tag; experiment: as above

| binding [1] | binding [2] | binding [3] | Binder |
| --- | --- | --- | --- |
| binds |  |  | iASPP (protein, UniProt Q8WUF5 1-828) MDSEAFQSARDFLDMNFQSLAMKHMDLKQMELDTAAAKVDELTKQLESLWSDSPAPPGPQAGPPSRPPRYSSSSIPEPFGSRGSPRKAATDGADTPFGRSESAPTLHPYSPLSPKGRPSSPRTPLYLQPDAYGSLDRATSPRPRAFDGAGSSLGRAPSPRPGPGPLRQQGPPTPFDFLGRAGSPRGSPLAEGPQAFFPERGPSPRPPATAYDAPASAFGSSLLGSGGSAFAPPLRAQDDLTLRRRPPKAWNESDLDVAYEKKPSQTASYERLDVFARPASPSLQLLPWRESSLDGLGGTGKDNLTSATLPRNYKVSPLASDRRSDAGSYRRSLGSAGPSGTLPRSWQPVSRIPMPPSSPQPRGAPRQRPIPLSMIFKLQNAFWEHGASRAMLPGSPLFTRAPPPKLQPQPQPQPQPQSQPQPQLPPQPQTQPQTPTPAPQHPQQTWPPVNEGPPKPPTELEPEPEIEGLLTPVLEAGDVDEGPVARPLSPTRLQPALPPEAQSVPELEEVARVLAEIPRPLKRRGSMEQAPAVALPPTHKKQYQQIISRLFHRHGGPGPGGPEPELSPITEGSEARAGPPAPAPPAPIPPPAPSQSSPPEQPQSMEMRSVLRKAGSPRKARRARLNPLVLLLDAALTGELEVVQQAVKEMNDPSQPNEEGITALHNAICGANYSIVDFLITAGANVNSPDSHGWTPLHCAASCNDTVICMALVQHGAAIFATTLSDGATAFEKCDPYREGYADCATYLADVEQSMGLMNSGAVYALWDYSAEFGDELSFREGESVTVLRRDGPEETDWWWAALHGQEGYVPRNYFGLFPRVKPQRSKV |
|  | no binding | binds | iASPP (pcDNA3.1-iASPP) (protein, UniProt Q8WUF5 1-828) MDSEAFQSARDFLDMNFQSLAMKHMDLKQMELDTAAAKVDELTKQLESLWSDSPAPPGPQAGPPSRPPRYSSSSIPEPFGSRGSPRKAATDGADTPFGRSESAPTLHPYSPLSPKGRPSSPRTPLYLQPDAYGSLDRATSPRPRAFDGAGSSLGRAPSPRPGPGPLRQQGPPTPFDFLGRAGSPRGSPLAEGPQAFFPERGPSPRPPATAYDAPASAFGSSLLGSGGSAFAPPLRAQDDLTLRRRPPKAWNESDLDVAYEKKPSQTASYERLDVFARPASPSLQLLPWRESSLDGLGGTGKDNLTSATLPRNYKVSPLASDRRSDAGSYRRSLGSAGPSGTLPRSWQPVSRIPMPPSSPQPRGAPRQRPIPLSMIFKLQNAFWEHGASRAMLPGSPLFTRAPPPKLQPQPQPQPQPQSQPQPQLPPQPQTQPQTPTPAPQHPQQTWPPVNEGPPKPPTELEPEPEIEGLLTPVLEAGDVDEGPVARPLSPTRLQPALPPEAQSVPELEEVARVLAEIPRPLKRRGSMEQAPAVALPPTHKKQYQQIISRLFHRHGGPGPGGPEPELSPITEGSEARAGPPAPAPPAPIPPPAPSQSSPPEQPQSMEMRSVLRKAGSPRKARRARLNPLVLLLDAALTGELEVVQQAVKEMNDPSQPNEEGITALHNAICGANYSIVDFLITAGANVNSPDSHGWTPLHCAASCNDTVICMALVQHGAAIFATTLSDGATAFEKCDPYREGYADCATYLADVEQSMGLMNSGAVYALWDYSAEFGDELSFREGESVTVLRRDGPEETDWWWAALHGQEGYVPRNYFGLFPRVKPQRSKV |
